# Laboratory results from patent US5187277A, “DL-3-[4-[4-(2-pyridyl)-1-piperazinyl]-butyl]-1,8,8-trimethyl-3-az abicyclo[(3]octane-2,4-dione having psychotropic and antiemetic effect” (priority 1990, dated 1993).
# Assay: in vivo
# Conditions: ip
compound,measurement,value
CN1C(=O)CN=C(c2ccccc2)c2cc(Cl)ccc21 [Diazepame],LD50,110 ± 27 mg/kg
